These are yes or no findings as the source states them, for the method shown. Some binding calls cover weakened binding; strength is not graded here.

By UniProt entry, the sequences of proteins in these tests, tags left out.
UniProt Q9NZQ7: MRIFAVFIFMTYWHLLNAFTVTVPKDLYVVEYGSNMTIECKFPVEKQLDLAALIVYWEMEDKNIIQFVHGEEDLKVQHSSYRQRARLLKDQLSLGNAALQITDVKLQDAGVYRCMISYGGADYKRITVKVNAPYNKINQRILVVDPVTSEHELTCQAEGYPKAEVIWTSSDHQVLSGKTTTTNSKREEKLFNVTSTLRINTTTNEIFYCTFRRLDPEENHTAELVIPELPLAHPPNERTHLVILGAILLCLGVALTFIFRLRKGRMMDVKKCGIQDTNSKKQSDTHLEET

The test has as its target PD-L1-mFc (UniProt Q9NZQ7). Description: competition ELISA: PD-1-hFc coated, PD-L1-mFc 1 ug/ml in solution, blocking of PD-L1 binding to PD-1. For orientation: An ELISA detects its analyte on a solid surface through an enzyme-linked reagent.

B1: 抗PD-L1人源化纳米抗体hzF2 (VHH, not shown: a dimerising Fc or GST)
VHH: EVQLVESGGGLVQPGGSLRLSCAASRDSDEGASCMGWFRQAPGKEREGVAIIFNAGERTDYGDSVKGRFTISRDNAKNTLYLQMNSLRAEDTAVYYCATVWCGSWVARSWGQGTLVTVSS
On to B1, for which the binding entry was “binds”.

Source of the values: CN116355099A.
